Test results from paper PMC12639135.
No constants are given. Whether binding was seen depends on the method and setting. In cells and extracts the contact can be indirect. Some results given as binding are weak or reduced against the parent protein; the word gives no strength. Blank lines part the entries; values can stand above or below the substance they belong to.

Amino acid sequences for entries named in this document (tags omitted). A change or cut given only in a name is not applied to a line headed by its entry.
UniProt P27694: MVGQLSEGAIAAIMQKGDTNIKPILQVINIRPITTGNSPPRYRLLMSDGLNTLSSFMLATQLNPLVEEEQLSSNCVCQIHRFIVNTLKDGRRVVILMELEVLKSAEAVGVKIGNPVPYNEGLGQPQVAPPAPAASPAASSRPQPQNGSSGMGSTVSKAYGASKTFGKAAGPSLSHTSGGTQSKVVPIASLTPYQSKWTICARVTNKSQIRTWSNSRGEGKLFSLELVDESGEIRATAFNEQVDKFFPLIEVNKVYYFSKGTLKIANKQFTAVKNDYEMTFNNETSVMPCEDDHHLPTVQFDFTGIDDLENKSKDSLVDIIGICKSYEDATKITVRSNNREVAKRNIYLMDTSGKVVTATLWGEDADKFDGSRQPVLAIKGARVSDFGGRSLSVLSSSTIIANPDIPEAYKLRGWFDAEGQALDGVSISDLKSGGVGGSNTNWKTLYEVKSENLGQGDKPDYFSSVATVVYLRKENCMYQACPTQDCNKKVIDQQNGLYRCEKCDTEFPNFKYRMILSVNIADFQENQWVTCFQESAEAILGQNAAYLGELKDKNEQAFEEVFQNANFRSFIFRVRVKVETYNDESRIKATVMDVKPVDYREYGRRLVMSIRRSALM
UniProt O14929: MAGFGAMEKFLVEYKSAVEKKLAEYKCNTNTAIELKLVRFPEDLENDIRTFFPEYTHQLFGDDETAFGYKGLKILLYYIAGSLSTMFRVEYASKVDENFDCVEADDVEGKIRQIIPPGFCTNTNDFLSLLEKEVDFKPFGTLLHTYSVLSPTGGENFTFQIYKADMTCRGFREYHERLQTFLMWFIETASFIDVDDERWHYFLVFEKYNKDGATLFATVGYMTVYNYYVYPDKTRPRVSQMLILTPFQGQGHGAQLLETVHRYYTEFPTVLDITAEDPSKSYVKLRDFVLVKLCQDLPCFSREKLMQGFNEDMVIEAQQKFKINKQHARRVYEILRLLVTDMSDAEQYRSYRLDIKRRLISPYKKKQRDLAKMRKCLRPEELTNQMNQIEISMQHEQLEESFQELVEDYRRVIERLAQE
UniProt P54132: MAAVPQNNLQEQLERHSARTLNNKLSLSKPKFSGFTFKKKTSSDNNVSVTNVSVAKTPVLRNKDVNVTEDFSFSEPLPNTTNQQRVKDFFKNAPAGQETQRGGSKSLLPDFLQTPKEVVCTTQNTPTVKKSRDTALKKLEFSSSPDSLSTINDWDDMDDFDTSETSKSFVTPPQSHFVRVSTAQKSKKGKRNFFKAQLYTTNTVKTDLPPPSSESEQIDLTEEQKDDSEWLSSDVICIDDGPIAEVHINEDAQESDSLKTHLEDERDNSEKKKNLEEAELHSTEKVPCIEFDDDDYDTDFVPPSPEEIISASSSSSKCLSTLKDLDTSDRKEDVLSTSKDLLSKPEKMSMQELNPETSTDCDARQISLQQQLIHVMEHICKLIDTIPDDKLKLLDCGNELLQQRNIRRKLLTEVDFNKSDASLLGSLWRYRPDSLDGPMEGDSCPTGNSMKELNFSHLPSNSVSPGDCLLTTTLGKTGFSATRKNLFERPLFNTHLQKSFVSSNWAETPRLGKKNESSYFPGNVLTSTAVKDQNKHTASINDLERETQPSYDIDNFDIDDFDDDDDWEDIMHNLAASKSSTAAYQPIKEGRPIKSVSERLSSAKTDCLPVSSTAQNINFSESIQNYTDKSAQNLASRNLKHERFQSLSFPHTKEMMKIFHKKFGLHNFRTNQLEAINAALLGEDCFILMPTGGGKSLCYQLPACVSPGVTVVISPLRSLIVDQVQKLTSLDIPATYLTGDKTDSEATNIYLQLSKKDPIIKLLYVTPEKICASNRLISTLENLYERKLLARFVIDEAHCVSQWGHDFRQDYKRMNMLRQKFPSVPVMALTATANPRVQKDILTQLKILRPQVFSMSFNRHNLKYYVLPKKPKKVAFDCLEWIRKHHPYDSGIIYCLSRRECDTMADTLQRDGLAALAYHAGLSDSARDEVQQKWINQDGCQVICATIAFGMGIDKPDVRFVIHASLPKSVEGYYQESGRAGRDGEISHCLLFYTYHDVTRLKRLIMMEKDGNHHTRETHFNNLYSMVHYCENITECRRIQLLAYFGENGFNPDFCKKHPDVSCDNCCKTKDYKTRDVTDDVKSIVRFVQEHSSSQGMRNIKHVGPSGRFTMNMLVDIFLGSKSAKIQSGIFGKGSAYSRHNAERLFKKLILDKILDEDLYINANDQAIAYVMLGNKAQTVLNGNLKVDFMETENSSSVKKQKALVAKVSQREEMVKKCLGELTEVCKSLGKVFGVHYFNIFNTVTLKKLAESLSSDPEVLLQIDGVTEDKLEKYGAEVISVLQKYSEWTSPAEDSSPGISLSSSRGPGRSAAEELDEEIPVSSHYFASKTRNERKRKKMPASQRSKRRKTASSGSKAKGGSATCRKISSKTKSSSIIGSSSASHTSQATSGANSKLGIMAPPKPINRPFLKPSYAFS

Experiments:
[1] = biological target: Flag-tagged RPA1 (UniProt P27694); experiment: co-IP; 293T cells transfected with RPA1 or RPA1 K88R, K163R, K167R, K267R; RPA1-bound endogenous HR factors detected
[2] = biological target: RPA1 K163R (UniProt P27694); experiment: as above
[3] = biological target: RPA1 K167R (UniProt P27694); experiment: as above
[4] = biological target: RPA1 K267R (UniProt P27694); experiment: as above
[5] = biological target: RPA1 K88R (UniProt P27694); experiment: as above
[6] = biological target: RPA1 (endogenous) (human (endogenous in A549 and H1299)) (UniProt P27694); experiment: co-IP; endogenous proteins, A549 and H1299 lysates (Western and IP lysis buffer), antibody on magnetic beads, 4 °C overnight, Western blot
[7] = biological target: Flag-tagged RPA1 (UniProt P27694); experiment: co-IP; exogenous HAT1 and exogenous RPA1 in 293T cells, Flag-Trap, Western blot
[8] = biological target: HA-tagged HAT1 (UniProt O14929); experiment: co-IP; exogenous HAT1 and exogenous RPA1 in 293T cells, HA-Trap, Western blot
[9] = biological target: Flag-tagged HAT1 (UniProt O14929); experiment: co-IP; proteins that interact with HAT1, shown by silver staining; cell line not stated

Substance: HA-tagged HAT1 (from UniProt O14929 1-419)
binding [7]: binds

Substance: Flag-tagged RPA1 (from UniProt P27694 1-616)
binding [8]: binds

Substance: RPA1 (endogenous) (from UniProt P27694 1-616)
binding [9]: binds

Next, values leading:

binding [1]: binds | binding [2]: binds | binding [3]: binds | binding [4]: binds | binding [5]: binds
Substance: BLM (endogenous) (from UniProt P54132 1-1417)

binding [6]: binds
Substance: HAT1 (endogenous) (from UniProt O14929 1-419)
